{"source": "PubChem BioAssay AID540256", "about": "(National Center for Advancing Translational Sciences (NCATS), 2011)", "note": "Where “and” joins values, the source holds several entries; their conditions need not be identical. Identical values can stand only once. Out of some 300,000 compounds screened, about 3,700 (1.2%) were called active. Inconclusive results, whose numbers are uncertain, are shown with a selection of clear calls. Calls come from the whole dose curve; tested in HEK293 cells. A potency beside an inconclusive call is a rough fit, not a confirmed value. % is set by controls: 0 for no effect and ±100 for the full control effect; potency is the fitted concentration of half-maximal effect."}
{"assay": "qHTS for Inhibitors of binding or entry into cells for Lassa Virus; note: nearly all actives have a fitted effect of over 50% in size", "details": "Lassa virus pseudotype entry inhibition, cell reporter; activity change, negative = inhibition: at 37.9 µM (top of the series) unless noted"}
{"smiles": "CC(NC(=O)c1ccc2c(c1)CCN2S(=O)(=O)c1ccccc1)c1ccccc1", "note": "(configuration not stated)", "Potency": "inconclusive: 35.5 µM [inhibitor, partial curve, poor fit]"}
{"smiles": "COc1ccc(CNC(=O)c2nc(SCc3ccccc3F)ncc2Cl)cc1", "Potency": "inconclusive: 20 µM [inhibitor, single point]"}
{"smiles": "COc1ccc(-c2cn3ccc4ccccc4c3n2)cc1", "Potency": "inconclusive: 11.2 µM [inhibitor, single point]"}
{"smiles": "CSc1cccc(NC(=S)N(CCC(C)C)C2CCN(C(C)C)CC2)c1", "Potency": "inconclusive: 28.2 µM [inhibitor, single point]"}
{"smiles": "CC(C)NC(=O)NC(=O)COC(=O)c1cc[n+]([O-])cc1", "activity change, negative = inhibition": "inactive: 1.94%"}
{"smiles": "N#C/C(=C\\c1ccc(-c2ccc(Br)cc2)o1)C(=O)NCCc1c[nH]c2ccccc12", "Potency": "inconclusive: 14.6 µM [inhibitor, partial curve, poor fit] and inconclusive: 8.91 µM [inhibitor, partial curve, poor fit]"}
{"smiles": "O=[N+]([O-])c1cccnc1N1CCC(c2cc(-c3ccc(Cl)cc3)n[nH]2)CC1", "Potency": "inconclusive: 7.94 µM [inhibitor, partial curve, poor fit]"}
{"smiles": "Cn1c(=O)c2c(nc(NCCNC(=O)c3ccco3)n2Cc2ccc(Cl)cc2Cl)n(C)c1=O", "Potency": "inconclusive: 29.1 µM [inhibitor, single point]"}
{"smiles": "CCOc1ccc(Cn2c(SCCCCC#N)nc3c2c(=O)n(C)c(=O)n3C)cc1OCC", "Potency": "inconclusive: 0.291 µM [inhibitor, full curve, poor fit]"}
{"smiles": "CN(CC(=O)N1CCCCCC1)S(=O)(=O)c1ccc(F)cc1", "activity change, negative = inhibition": "inactive: 11.8% [at 46.1 µM]"}
{"smiles": "CCCCc1ccc(S(=O)(=O)NCCCN2CCCC2=O)cc1", "Potency": "inconclusive: 35.5 µM [inhibitor, single point]"}
{"smiles": "C/C(=N\\Nc1nccnc1Cl)c1ccc(Cl)c(Cl)c1", "Potency": "inconclusive: 10 µM [activator, partial curve, poor fit]"}
{"smiles": "Cn1nc(C(C)(C)C)c([N+](=O)[O-])c1C(=O)Nc1ccccc1", "Potency": "inconclusive: 0.398 µM [inhibitor, partial curve, poor fit]"}
{"smiles": "CC1CCc2c(sc3ncnc(NCCCOC(C)C)c23)C1", "note": "(configuration not stated)", "activity change, negative = inhibition": "inactive: -11.3%"}
{"smiles": "c1cnn2ncc(-c3ccnc(Nc4ccc5c(c4)OCCO5)n3)c2c1", "Potency": "inconclusive: 2.5 µM [inhibitor, partial curve, poor fit]"}
{"smiles": "O=C1C=C(Nc2ccc(Cl)cc2)CC(c2ccco2)C1", "note": "(configuration not stated)", "Potency": "inconclusive: 11.2 µM [inhibitor, single point]"}
{"smiles": "CS(=O)(=O)c1ccc2nc(NC(=O)c3ccc(Cl)cc3)sc2c1", "activity change, negative = inhibition": "inactive: 5.82% [at 46.1 µM]"}
{"smiles": "CCOC(=O)c1sc(=NC(=O)c2cccc(C)c2)n(C)c1C", "Potency": "inconclusive: 12.6 µM [activator, partial curve, poor fit]"}
{"smiles": "O=S(=O)(c1ccccc1)c1nc(-c2ccccc2)oc1N1CCCC1", "activity change, negative = inhibition": "inconclusive: 6.8% [activator]"}
{"smiles": "COc1ccc(N2CCN(CCCNC(=O)c3cc(Nc4ccc(OC)cc4OC)nc4ccccc34)CC2)cc1", "Potency": "inconclusive: 20 µM [inhibitor, partial curve, poor fit]"}
{"smiles": "c1ccc(C2=NNC(=NC3CC3)SC2)cc1", "Potency": "active: 8.2 µM"}
{"smiles": "CCOC(=O)CN1C(=O)[C@]2(O[C@H](COc3ccccc3)CC3=CCCC32)c2c(Br)cccc21", "note": "(some centres not stated)", "Potency": "inconclusive: 0.075 µM [inhibitor, full curve, poor fit]"}
{"smiles": "CCOc1ccc(-c2cc(C(=O)Oc3ccc(C#N)cc3)no2)cc1", "activity change, negative = inhibition": "inactive: 6.23% [at 46.1 µM]"}
{"smiles": "Clc1ccc2nc(N3CCCCC3)sc2c1", "Potency": "inconclusive: 1 µM [activator, partial curve, poor fit]"}
{"smiles": "Cc1ccccc1-c1nc2cc(N)ccc2o1", "Potency": "inconclusive: 35.5 µM [inhibitor, single point]"}
{"smiles": "COc1cc(NC(=O)CCS(=O)(=O)c2ccc3c(c2)CC(=O)N3C)cc(OC)c1OC", "Potency": "inconclusive: 0.316 µM [inhibitor, full curve, poor fit]"}
{"smiles": "Cc1nn(CC(=O)N2CCCc3ccccc32)c(C)c1[N+](=O)[O-]", "activity change, negative = inhibition": "inactive: 22.6%"}
{"smiles": "O=C(CSc1nnc(-c2ccccc2)n1-c1ccccc1)NCc1ccco1", "Potency": "inconclusive: 13 µM [inhibitor, partial curve, poor fit]"}
{"smiles": "C/C(Cn1cnc([N+](=O)[O-])n1)=N/NC(=O)COc1ccccc1Cl", "activity change, negative = inhibition": "inactive: 21.1%"}
{"smiles": "CCN(CC)S(=O)(=O)c1ccc(C(=O)NNc2nc(-c3ccccc3)c3cc(Br)ccc3n2)cc1", "Potency": "inconclusive: 3.98 µM [inhibitor, partial curve, poor fit]"}
{"smiles": "CC(=O)n1nc(-c2ccc(Cl)cc2)nc1NCc1ccco1", "activity change, negative = inhibition": "inactive: -14.3%"}
{"smiles": "CCOC(=O)C(NC(=O)C(Cc1ccc(N(CCCl)CCCl)cc1)NC(C)=O)C(C)C", "note": "(configuration not stated)", "activity change, negative = inhibition": "inactive: 6.64%"}
{"smiles": "O=C(CSc1ncnc2c1cnn2-c1cccc(Cl)c1)NCC1CCCO1", "note": "(configuration not stated)", "Potency": "inconclusive: 7.08 µM [inhibitor, full curve, poor fit]"}
{"smiles": "N/C(=N\\OC(=O)Cc1ccc([N+](=O)[O-])cc1)c1cccc(Br)c1", "activity change, negative = inhibition": "inactive: 0.389%"}
{"smiles": "C/C(=N\\OC(=O)c1ccc(F)cc1)c1sc(-c2ccccc2)nc1C", "activity change, negative = inhibition": "inactive: 9.06%"}
{"smiles": "Fc1ccc(-c2ncn(C3CCNCC3)c2-c2ccnc(Oc3ccc(Oc4ccccc4)cc3)n2)cc1", "Potency": "active: 12.5 µM"}
{"smiles": "O=S1(=O)c2c(F)cccc2O[C@@H](COCc2ccccc2)CN1CCc1ccc(F)cc1", "Potency": "inconclusive: 14.1 µM [inhibitor, partial curve, poor fit]"}
{"smiles": "COC(=O)c1sc2nc3c(cc2c1N)COC(C)(C)C3", "Potency": "inconclusive: 2.06 µM [activator, partial curve, poor fit]"}
{"smiles": "Cc1cccc(C)c1OCCCn1c(CCNC(=O)C2CCCCC2)nc2ccccc21", "Potency": "inconclusive: 22.4 µM [inhibitor, single point]"}
{"smiles": "Cc1ccc(NC(=O)Cn2c(=O)n(Cc3nc(C)no3)c(=O)c3ccccc32)c(Cl)c1", "activity change, negative = inhibition": "inactive: -1.81% [at 46.1 µM]"}
{"smiles": "O=C(O)CN1C(=O)/C(=C\\c2cc(Br)ccc2OCc2ccccc2Cl)SC1=S", "Potency": "inconclusive: 3.55 µM [activator, full curve, poor fit]"}
{"smiles": "Cn1c(=O)c2[nH]c(Cc3cccc4ccccc34)nc2n(C)c1=O", "Potency": "inconclusive: 2.82 µM [inhibitor, full curve, poor fit]"}
